Measured values: publication PMC9616699
These are yes or no findings as the source states them, for the method shown. Binding seen in cells or lysates may run through a third protein. Some binding calls cover weakened binding; strength is not graded here. For some of these results: Sequences can lack the tags named with a protein.

By UniProt entry, the sequences of proteins in these tests, tags left out. Residues count along the entry.
UniProt P40259, residues 29-229: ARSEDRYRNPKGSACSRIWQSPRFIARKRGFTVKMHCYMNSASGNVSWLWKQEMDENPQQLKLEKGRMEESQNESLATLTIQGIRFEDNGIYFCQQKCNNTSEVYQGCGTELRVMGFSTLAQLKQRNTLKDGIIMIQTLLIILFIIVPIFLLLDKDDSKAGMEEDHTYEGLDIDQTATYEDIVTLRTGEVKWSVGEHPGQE

Legend:
[1] = target: T1, WT BAFFR-RFP fusion protein (human) (UniProt Q96RJ3); assay: FRET or BRET; FRET from GFP to RFP read by flow cytometry (percent FRET+ of double-positive cells) in DG-75 BAFFR KO cells co-expressing BAFFR-GFP and BAFFR-RFP fusion proteins (same variant on both, or variant-GFP with WT BAFFR-RFP); resting cells or 50 ng/ml BAFF for 1 h at 37 °C
T1 sequence: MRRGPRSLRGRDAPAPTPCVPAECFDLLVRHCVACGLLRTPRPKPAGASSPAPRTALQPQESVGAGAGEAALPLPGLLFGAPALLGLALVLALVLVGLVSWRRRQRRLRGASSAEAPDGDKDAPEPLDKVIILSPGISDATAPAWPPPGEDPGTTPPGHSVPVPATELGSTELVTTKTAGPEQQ

[2] = target: BAFFR A52T-GFP fusion protein (human) (UniProt Q96RJ3); assay: as above
[3] = target: BAFFR DUP92-95-GFP fusion protein (human) (UniProt Q96RJ3); assay: as above
[4] = target: BAFFR G64V-GFP fusion protein (human) (UniProt Q96RJ3); assay: as above
[5] = target: BAFFR H159Y-GFP fusion protein (human) (UniProt Q96RJ3); assay: as above
[6] = target: CD79B-RFP fusion protein (UniProt P40259); assay: FRET or BRET; FRET from GFP to RFP read by flow cytometry (percent FRET+ cells) in DG-75 BAFFR KO cells co-expressing WT or variant BAFFR-GFP and CD79B-RFP; without ligand or 1 h after adding 100 ng/ml BAFF
[7] = target: BAFFR P146S-GFP fusion protein (human) (UniProt Q96RJ3); assay: FRET or BRET; FRET from GFP to RFP read by flow cytometry (percent FRET+ of double-positive cells) in DG-75 BAFFR KO cells co-expressing BAFFR-GFP and BAFFR-RFP fusion proteins (same variant on both, or variant-GFP with WT BAFFR-RFP); resting cells or 50 ng/ml BAFF for 1 h at 37 °C
[8] = target: WT BAFFR-GFP fusion protein (human) (UniProt Q96RJ3); assay: as above

Substance	binding [1]	binding [6]	other results
BAFFR A52T-GFP fusion protein (from UniProt Q96RJ3 1-184) (receptor)	binds		binding [2]: binds
BAFFR DUP92-95-GFP fusion protein (from UniProt Q96RJ3 1-184) (receptor)	binds		binding [3]: binds
BAFFR G64V-GFP fusion protein (from UniProt Q96RJ3 1-184) (receptor)	binds		binding [4]: binds
BAFFR H159Y-GFP fusion protein (from UniProt Q96RJ3 1-184) (receptor)	binds	binds	binding [5]: binds
BAFFR P21R-GFP fusion protein (from UniProt Q96RJ3 1-184) (receptor)	binds		
BAFFR P21R-H159Y-GFP fusion protein (from UniProt Q96RJ3 1-184) (receptor)	binds	binds	
BAFFR P146S-GFP fusion protein (from UniProt Q96RJ3 1-184) (receptor)	binds	binds	binding [7]: binds
WT BAFFR-GFP fusion protein (from UniProt Q96RJ3 1-184) (receptor)			binding [8]: binds
